According to US5202320A, “Method for treating leishmaniasis” (priority 1989, dated 1993):

Test system: Leishmania mexicana amazonensis
Assay: In vitro screening for anti-leishmanial activity: inhibition of 3H-thymidine incorporation by promastigotes
Type: cell-based
Conditions: rank by NEW IC50 among 18 examples
Method: Leishmania mexicana amazonensis, strain MHOM/BR/73/M2269 (WR669), promastigotes were grown to early log phase in Schneider's Drosophila Medium (GIBCO) supplemented with 20% heat-inactivated fetal bovine serum GIBCO) and 100 ug/ml gentamicin sulfate [Parasitology 76:309 (1978)]. The assay medium was Schneider's plus 10% fetal bovine serum. Serial dilutions of the compounds of use in the present invention were suspended in the assay medium an prepared in duplicate rows of a 96-well microtiter plate. Parasite suspension (200 ul) at 2.5×10^6 cells/ml was added to each well and each plate was sealed and incubated under air at 25° C. After 24 hours, [methyl-3H] thymidine (20 Ci/mmol) was added to yield 1-2 uCi/well. After an additional 18 hours, the cells were harvested with a Skatron cell harvester onto glass microfiber filters. The filter disks were washed and dried and counted using a Beckman LS3801 scintillation counter. The data on uptake of ^3 H-thymidine was fitted to a logistic-logarithmic concentration response function by a non-linear regression method and the drug concentrations required to inhibit 50% incorporation of ^3 H-thymidine were determined [Antimicrob. Agents Chemother. 16:710 (1979); Exper. Parasitol. 66:86 (1988)].

SMILES | Rank (of 18) (NEW)
COc1cc(C(=N)N)ccc1OCCCOc1ccc(C(=N)N)cc1OC [Example 1] | 10
N=C(N)c1ccc(NCCCCNc2ccc(C(=N)N)cc2)cc1 [Example 2] | 3
N=C(N)c1ccc(OCCCCOc2ccc(C(=N)N)cc2)cc1 [Example 3] | 7
N=C(N)c1ccc(OCCCCCOc2ccc(C(=N)N)cc2)cc1 [Example 4, pentamidine] | 4
N=C(N)c1ccc(OCCCCCOc2ccc(C(=N)N)cc2[N+](=O)[O-])c([N+](=O)[O-])c1 [Example 5] | 13
N=C(N)c1ccc(OCCCCCOc2ccc(C(=N)N)cc2N)c(N)c1 [Example 6] | 12
COc1cc(C(=N)N)ccc1OCCCCCOc1ccc(C(=N)N)cc1OC [Example 7] | 16
N=C(N)c1ccc(NCCCCCNc2ccc(C(=N)N)cc2)cc1 [Example 8] | 2
N=C(N)c1ccc(OCCCCCCOc2ccc(C(=N)N)cc2)cc1 [Example 9, hexamidine, reference compound] | 1
N=C(N)c1ccc(OCCCCCOc2ccc(C(=N)N)cc2Cl)c(Cl)c1 [Example 10] | 6
N=C(N)c1cccc(OCCCOc2cccc(C(=N)N)c2)c1 [Example 11] | 17
N=C(N)c1cccc(OCCCCOc2cccc(C(=N)N)c2)c1 [Example 12] | 15
N=C(N)c1cccc(OCCCCCOc2cccc(C(=N)N)c2)c1 [Example 13] | 9
N=C(N)c1cccc(OCCCCCCOc2cccc(C(=N)N)c2)c1 [Example 14] | 14
c1cc(C2=NCCN2)ccc1OCCCCCOc1ccc(C2=NCCN2)cc1 [Example 15] | 5
CN1CCN=C1c1ccc(OCCCCCOc2ccc(C3=NCCN3C)cc2)cc1 [Example 16] | 18
COc1cc(C2=NCCN2)ccc1OCCCOc1ccc(C2=NCCN2)cc1OC [Example 17] | 11
c1cc(C2=NCCN2)ccc1OCCCOc1ccc(C2=NCCN2)cc1 [Example 18] | 8
